These are yes or no findings as the source states them, for the method shown. Binding seen in cells or lysates may run through a third protein. Some results given as binding are weak or reduced against the parent protein; the word gives no strength.
Target: Yes-associated protein (human (endogenous in LM7)) (UniProt P46937)
Assay: co-IP; whole cell extracts of LM7 cells treated for 2 h with DMSO, Riluzole or Riluzole + PPY A; extract in 400 mM KCl buffer diluted to 200 mM KCl, 10 mM Tris-HCl pH 7.9, 0.25% NP-40; protein A beads with anti-YAP antibody, 2 h at 4 °C; blot with anti-p73, reprobed with anti-YAP

The chains behind the UniProt entries cited, without tags or fusion partners.
UniProt P46937: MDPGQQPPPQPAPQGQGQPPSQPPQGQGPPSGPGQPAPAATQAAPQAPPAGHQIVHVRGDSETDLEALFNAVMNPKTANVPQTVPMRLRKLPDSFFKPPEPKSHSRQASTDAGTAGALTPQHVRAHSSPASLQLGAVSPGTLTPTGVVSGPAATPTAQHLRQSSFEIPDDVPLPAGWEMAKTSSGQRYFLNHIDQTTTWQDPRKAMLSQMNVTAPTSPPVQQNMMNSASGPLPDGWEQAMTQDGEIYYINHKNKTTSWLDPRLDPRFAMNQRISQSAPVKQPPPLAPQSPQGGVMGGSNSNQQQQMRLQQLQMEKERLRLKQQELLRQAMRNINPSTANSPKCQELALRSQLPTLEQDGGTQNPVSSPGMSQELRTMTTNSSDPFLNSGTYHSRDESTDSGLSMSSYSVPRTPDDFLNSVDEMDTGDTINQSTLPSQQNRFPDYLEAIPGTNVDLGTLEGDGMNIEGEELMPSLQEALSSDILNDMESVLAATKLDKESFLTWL

B1: p73 (protein, UniProt O15350 1-636)
chain: MAQSTATSPDGGTTFEHLWSSLEPDSTYFDLPQSSRGNNEVVGGTDSSMDVFHLEGMTTSVMAQFNLLSSTMDQMSSRAASASPYTPEHAASVPTHSPYAQPSSTFDTMSPAPVIPSNTDYPGPHHFEVTFQQSSTAKSATWTYSPLLKKLYCQIAKTCPIQIKVSTPPPPGTAIRAMPVYKKAEHVTDVVKRCPNHELGRDFNEGQSAPASHLIRVEGNNLSQYVDDPVTGRQSVVVPYEPPQVGTEFTTILYNFMCNSSCVGGMNRRPILIIITLEMRDGQVLGRRSFEGRICACPGRDRKADEDHYREQQALNESSAKNGAASKRAFKQSPPAVPALGAGVKKRRHGDEDTYYLQVRGRENFEILMKLKESLELMELVPQPLVDSYRQQQQLLQRPSHLQPPSYGPVLSPMNKVHGGMNKLPSVNQLVGQPPPHSSAATPNLGPVGPGMLNNHGHAVPANGEMSSSHSAQSMVSGSHCTPPPPYHADPSLVSFLTGLGCPNCIEYFTSQGLQSIYHLQNLTIEDLGALKIPEQYRMTIWRGLQDLKQGHDYSTAQQLLRSSNAATISIGGSGELQRQRVMEAVHFRVRHTITIPNRGGPGGGPDEWADFGFDLPDCKARKQPIKEEFTEAEIH
  binding: binds
